Test system: GAPDH
Experiment: RT-PCR gene expression of GAPDH (control gene) in ligustilide-treated ADSCs
Format: cell-based
Details: 24 hours
Method: ADSCs were cultured in the K-SFM as prepared in Example 1 at 37° C. in 5% CO2. The ADSCs were divided into […], and each group was treated with different concentrations (0, 0.625, 1.25, 2.5, 5 and 10 μg/ml) of (Z)-ligustilide for 24 hours, respectively.
The culture medium were removed from each group of stem cells in Experiment (1), then 1 ml of TRIzol reagent (Invitrogen) was added into each well and incubated at room temperature for 5 minutes. The stem cells were scraped by using a spatula and placed into a 1.5 ml microtube. Then, the cells were lysed completely, and 0.2 ml of trichloromethane (CHCl3) was added into the microtube. The microtube was shaken up and down for 15 seconds and incubated at room temperature for 2 to 3 minutes. The mixture was centrifuged (at 12000 g for 15 minutes at 4° C.). The supernatant was transferred into another 1.5 ml microtube, and 0.5 ml of isopropanol was added therein and mixed completely. The mixture was incubated at room temperature for 10 minutes and then centrifuged (at 12000 g for 10 minutes at 4° C.). The supernatant was removed. The remained sediment was washed with 1 ml of 75% ethanol-containing DEPC water (i.e. diethylpyrocarbonate-treated H2O) and centrifuged (7500 g at 4° C. for 5 minutes) again. The supernatant was removed. The remained sediment was dried by vacuum-pumping. The dried sediment was dissolved in about 0.01 ml to 0.02 ml of DEPC water to obtain total RNA of ADSCs of experimental group and blank group, respectively. The absorbance at a wavelength of 260 nm (OD260) of the samples were determined by a spectrophotometer (DU-800, Beckman) to evaluate the concentration of RNA. Then, the RNA was stored at −80° C. and used in the following Experiment (3).
The effects of ligustilide on increasing the expression of differentiation-promoting genes (e.g., BDNF and NURR1), increasing the expression of homing-promoting genes (e.g., CXCR4 and SDF1αβ), and decreasing the expression of inflammatory genes (e.g., IL-6 and IL-8) was analyzed by reverse transcription polymerase chain reaction (RT-PCR), wherein the gene expression of glyceraldehyde 3-phosphate dehydrogenase (GAPDH) was served as a control group, and the steps were described as follows.
The total RNA provided in the above Experiment (2) was reverse transcribed into cDNA. 2.5 μl of each primer (10 pM) shown in Table 1A, 7.5 μl of ddH2O, and 12.5 μl of EconoTaq® PLUS GREEN 2X Master Mix (Lucigen, Middleton, Wis., USA) were mixed with 2.5 μl of the cDNA. The mixture was placed in a RT-PCR machine. […]
The obtained RT-PCR product was analyzed by 1.5% agarose gel electrophoresis for 30 minutes (voltage: 100 volts (V)). […]

CCC/C=C1\OC(=O)C2=C1CCC=C2 [ligustilide, (Z)-ligustilide]
GAPDH expression level (Image J), control gene (0.625 μg/ml ligustilide): 6892.26 | GAPDH expression level (Image J), control gene (1.25 μg/ml ligustilide): 7615.03 | GAPDH expression level (Image J), control gene (2.5 μg/ml ligustilide): 8186.79 | GAPDH expression level (Image J), control gene (5 μg/ml ligustilide): 8265.67
